## Percent effect of library compounds

Protein sequences, listed by entry. Tags and fused reporters are not part of them. Residues count along the entry.
UniProt P9WPC5, whole entry: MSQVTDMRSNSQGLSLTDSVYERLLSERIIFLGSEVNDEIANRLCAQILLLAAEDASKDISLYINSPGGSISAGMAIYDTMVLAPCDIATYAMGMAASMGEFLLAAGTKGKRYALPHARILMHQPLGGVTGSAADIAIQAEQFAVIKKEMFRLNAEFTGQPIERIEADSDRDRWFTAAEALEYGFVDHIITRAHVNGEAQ
UniProt P9WPC3, whole entry partner: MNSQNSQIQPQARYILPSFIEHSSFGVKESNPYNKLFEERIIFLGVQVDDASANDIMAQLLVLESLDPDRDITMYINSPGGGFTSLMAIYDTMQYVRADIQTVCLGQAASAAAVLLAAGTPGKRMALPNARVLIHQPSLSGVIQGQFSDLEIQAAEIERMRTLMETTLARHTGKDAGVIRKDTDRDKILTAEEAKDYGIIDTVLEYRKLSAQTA
UniProt Q8IDJ8, 1-583: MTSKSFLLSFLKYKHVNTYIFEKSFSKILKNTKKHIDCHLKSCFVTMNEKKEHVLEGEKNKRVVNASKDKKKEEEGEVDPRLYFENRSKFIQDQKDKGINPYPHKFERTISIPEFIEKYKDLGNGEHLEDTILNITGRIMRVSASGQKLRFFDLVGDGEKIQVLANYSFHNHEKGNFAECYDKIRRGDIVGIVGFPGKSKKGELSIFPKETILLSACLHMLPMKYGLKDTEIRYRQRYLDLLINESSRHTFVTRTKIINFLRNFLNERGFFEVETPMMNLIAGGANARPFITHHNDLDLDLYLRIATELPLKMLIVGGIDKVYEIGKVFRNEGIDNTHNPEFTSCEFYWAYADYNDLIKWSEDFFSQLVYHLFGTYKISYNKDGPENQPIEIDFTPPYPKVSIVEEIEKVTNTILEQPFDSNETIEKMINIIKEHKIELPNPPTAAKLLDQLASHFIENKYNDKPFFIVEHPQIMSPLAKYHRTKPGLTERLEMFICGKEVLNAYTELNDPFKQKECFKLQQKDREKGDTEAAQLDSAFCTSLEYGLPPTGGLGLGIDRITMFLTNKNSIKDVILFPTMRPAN
UniProt P9WFT3, whole entry: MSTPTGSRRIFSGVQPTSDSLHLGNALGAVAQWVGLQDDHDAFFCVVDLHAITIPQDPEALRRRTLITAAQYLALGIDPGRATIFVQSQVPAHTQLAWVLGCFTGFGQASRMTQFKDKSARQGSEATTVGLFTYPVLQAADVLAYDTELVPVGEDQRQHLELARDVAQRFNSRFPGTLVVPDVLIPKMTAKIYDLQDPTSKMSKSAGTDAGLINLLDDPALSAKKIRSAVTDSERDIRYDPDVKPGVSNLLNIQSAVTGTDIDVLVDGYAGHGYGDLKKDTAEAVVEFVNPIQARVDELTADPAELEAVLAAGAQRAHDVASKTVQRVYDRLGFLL
UniProt A4I591, 1-473: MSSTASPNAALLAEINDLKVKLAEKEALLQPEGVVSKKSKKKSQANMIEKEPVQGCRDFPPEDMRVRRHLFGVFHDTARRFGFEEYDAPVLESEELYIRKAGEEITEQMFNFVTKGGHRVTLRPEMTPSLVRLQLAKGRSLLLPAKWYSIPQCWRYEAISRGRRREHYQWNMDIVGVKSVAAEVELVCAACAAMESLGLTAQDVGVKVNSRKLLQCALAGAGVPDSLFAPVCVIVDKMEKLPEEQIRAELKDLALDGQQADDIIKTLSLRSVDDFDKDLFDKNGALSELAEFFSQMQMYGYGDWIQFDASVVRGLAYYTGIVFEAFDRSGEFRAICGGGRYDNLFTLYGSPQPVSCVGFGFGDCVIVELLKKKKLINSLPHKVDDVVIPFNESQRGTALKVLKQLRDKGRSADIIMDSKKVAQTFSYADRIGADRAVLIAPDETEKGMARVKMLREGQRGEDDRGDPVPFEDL
UniProt Q4DA54, 1-478: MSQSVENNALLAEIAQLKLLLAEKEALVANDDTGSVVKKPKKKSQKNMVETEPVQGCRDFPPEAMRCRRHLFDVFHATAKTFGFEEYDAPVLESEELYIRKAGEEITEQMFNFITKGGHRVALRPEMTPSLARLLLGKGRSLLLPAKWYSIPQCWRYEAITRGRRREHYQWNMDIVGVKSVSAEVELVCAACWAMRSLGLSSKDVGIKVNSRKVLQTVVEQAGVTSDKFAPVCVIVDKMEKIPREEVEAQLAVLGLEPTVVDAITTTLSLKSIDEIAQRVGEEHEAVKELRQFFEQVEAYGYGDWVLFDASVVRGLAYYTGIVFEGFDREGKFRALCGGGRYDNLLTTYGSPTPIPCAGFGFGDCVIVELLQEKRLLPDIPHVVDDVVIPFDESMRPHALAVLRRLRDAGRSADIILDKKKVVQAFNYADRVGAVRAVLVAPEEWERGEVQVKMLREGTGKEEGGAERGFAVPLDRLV

The values are deposited in ChEMBL (CHEMBL3988442, “University of Dundee, Small-Polar-MMV Screening Library” (2021)).

A: 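Protease assay of ClpP1P2, read by the AMC dye that it sets free. Target: ClpP1P2, Mycobacterium tuberculosis (UniProt P9WPC5 and UniProt P9WPC3). Compounds at 50 µM. Higher reads as stronger inhibition, judged from the few compounds that gave an IC50. Most other retested compounds had strongly negative values. Size under these conditions: about 69,000 compounds, about 10 of them at 50% or above in at least one test.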
B: 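Lysine-tRNA ligase, Plasmodium falciparum 3D7 (UniProt Q8IDJ8). Enzyme assay of the cytosolic lysyl-tRNA synthetase in 384-well plates, read by luminescence. Concentration: 30 µM. Higher reads as stronger inhibition, judged from the few compounds that gave an IC50. About 69,000 compounds were tested under these conditions; 0.071% (about 49) showed 50% or more at least once.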
C: 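Tryptophan-tRNA ligase, Mycobacterium tuberculosis (UniProt P9WFT3). Enzyme assay of tryptophanyl-tRNA synthetase; the read-out is not stated. Concentration: 10 µM. Higher most likely means stronger inhibition; the record gives no direction and few retests gave an IC50. Size under these conditions: about 65,000 compounds, about 64 of them at 50% or above in at least one test.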
D: 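Enzyme assay of histidyl-tRNA synthetase; the read-out is not stated. Target: Histidine-tRNA ligase, Leishmania infantum (UniProt A4I591). Tested at 30 µM. Direction is inferred from retests: higher values go with stronger inhibition. The assay is labelled LdHisRS but filed under L. infantum. Of about 69,000 compounds tested this way, about 410 (0.6%) reached 50% or more in at least one test.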
E: 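Enzyme assay of histidyl-tRNA synthetase; the read-out is not stated. Target: Histidine-tRNA ligase, Trypanosoma cruzi CL Brener (UniProt Q4DA54). Compounds at 30 µM. The record gives no direction; compounds that gave an IC50 in retests scored well above the rest, so higher reads as stronger inhibition. Of about 69,000 compounds tested this way, about 31 (0.045%) reached 50% or more in at least one test.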
F: 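Cell assay of Leishmania donovani living inside macrophages; the read-out is not stated. Tested at 30 µM. Direction is inferred from retests: higher values go with stronger inhibition. Of about 69,000 compounds tested this way, about 1,000 (1.5%) reached 50% or more in at least one test.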

Results are given as percent effect.
The controls that fix the scale are not given in the record; negative values are as filed.
The compounds are a random part of those screened.

SMILES: COc1ccc(-c2n[nH]cc2CN(C)CCCN2CCOCC2)c(F)c1
A: -15.27
B: 2.344
C: 1.737
D: 7.5
E: -1.932
F: 19.09

SMILES: CCc1nnc2n1CCN(C(=O)c1cc(C)n(-c3ccccc3)c1C)C2
A: -9.496
B: 0.3043
C: -4.537
D: 7.895
E: 6.936
F: 22.5

SMILES: O=C(c1ccc2[nH]nnc2c1)N1CCC(Nc2cccnn2)CC1
A: 3.101
B: -1.448
C: 21.03
D: 13.91
E: -0.5747
F: -5.674

SMILES: O=C(O)c1c(-c2cccnc2)ncc2c1CCN(CC1CCOC1)C2 (stereo not shown)
A: 3.123
B: 6.869
C: -0.8718
D: 9.091
E: 9.091

SMILES: CCN(CC)c1ncc(Cl)c(C(=O)NC2CC2)n1
A: -2.253
B: -1.074
C: -1.521
D: 5.128
E: 3.448
F: -19.85

SMILES: Cn1cccc1CN1CCC2(CCCN(C(=O)c3cnccn3)C2)C1.O=C(O)C(F)(F)F (stereo not shown)
F: 15.83

SMILES: c1nc(-c2nc(C3CCOC3)no2)cs1 (stereo not shown)
A: -7.493
B: 4.936
C: -0.722
D: 10
E: 2.128
F: 15.96

SMILES: Cc1ccc(-c2cnnc(NCC3CCOCC3)n2)o1
A: -5.178
B: 2.997
C: 10.73
D: 24.18
E: 10.24
F: 5.655

SMILES: O=C(NCc1ccco1)[C@H]1C[C@@H]2CCN(c3ccncn3)C[C@@H]2O1
A: -4.507
B: -0.5695
C: 5.981
D: 20.75
E: 7.027

SMILES: Cc1cccnc1NC(=O)C1(n2cnnn2)CCCCC1
A: -12.49
B: 3.613
C: 0.8862
D: 10.53
E: 3.659
F: -11.21

SMILES: CSCC(C)(O)CNS(=O)(=O)c1ccc(F)cc1 (stereo not shown)
A: 3.355
B: 6.827
C: -0.983
D: 17.33
E: -0.5291
F: 30.99

SMILES: [H][C@]12CC[C@]([H])(CN(Cc3ccccc3)C1)N(C(=O)CC(F)(F)F)C2
F: 17.26

SMILES: COc1cnc(CN2CC(=O)N(c3ccc(C)cc3)CC2C)cc1O (stereo not shown)
A: 0.8366
B: 9.193
C: 1.111
D: 13.33
E: 3.571
F: 22.46

SMILES: Cc1nc2n(n1)CC(NCc1nc(C)c(C)o1)CC2 (stereo not shown)
A: -9.829
B: -0.6717
C: 0.9909
D: 6.349
E: 2.564
F: 29.8

SMILES: Cc1cc(N(C)CCCn2cccn2)nc(N)n1
A: -1.539
B: 1.189
C: 3.084
D: 4.082
E: 3
F: 27.03

SMILES: O=C(CNC(=O)C1CC1)NCCOc1cccc(Cl)c1Cl
A: 15.94
B: 2.74
C: 16.14
D: 15.18
E: -6.897
F: -27.01

SMILES: c1cnc(N2CCC3(COCc4cnc(N5CCOCC5)nc43)C2)nc1 (stereo not shown)
A: -4.877
B: 3.741
C: -3.043
D: 12.82
E: 9.756
F: 30.07

SMILES: CC(=O)N1CCCCC1c1nc2c(c(N3CCCCC3)n1)CN(C)CC2 (stereo not shown)
A: -6.686
B: 5.121
C: -0.2508
D: 22.22
E: 2.703
F: 27.94

SMILES: [H][C@@]12C[C@H](C(=O)Nc3ccccc3)[C@@]([H])(CN(C(=O)Nc3ccccc3)C1)O2
F: 33.81

SMILES: CCc1cc(CNC(=O)C2CCCN(C(=O)NCC(C)C)C2)[nH]n1 (stereo not shown)
A: -15.15
B: 1.016
C: -0.8223
D: 2.174
E: 8
F: -11.81

SMILES: Cn1cnc(S(=O)(=O)N2CCO[C@H]3[C@@H](OCC4CC4)CC[C@@H]32)c1
A: 1.243
B: 1.392
C: 11.54
D: -5.263
E: 8.046

Some entries from above, unchanged:

| SMILES | A | B | C | D | E | F |
|---|---|---|---|---|---|---|
| `CCc1cc(CNC(=O)C2CCCN(C(=O)NCC(C)C)C2)[nH]n1` (stereo not shown) | -15.15 | 1.016 | -0.8223 | 2.174 | 8 | -11.81 |
| `O=C(CNC(=O)C1CC1)NCCOc1cccc(Cl)c1Cl` | 15.94 | 2.74 | 16.14 | 15.18 | -6.897 | -27.01 |